# In PMC10556790:
# By UniProt entry, the sequences of proteins in these tests, tags left out. Residues count along the entry.
# UniProt P40939, residues 37-763: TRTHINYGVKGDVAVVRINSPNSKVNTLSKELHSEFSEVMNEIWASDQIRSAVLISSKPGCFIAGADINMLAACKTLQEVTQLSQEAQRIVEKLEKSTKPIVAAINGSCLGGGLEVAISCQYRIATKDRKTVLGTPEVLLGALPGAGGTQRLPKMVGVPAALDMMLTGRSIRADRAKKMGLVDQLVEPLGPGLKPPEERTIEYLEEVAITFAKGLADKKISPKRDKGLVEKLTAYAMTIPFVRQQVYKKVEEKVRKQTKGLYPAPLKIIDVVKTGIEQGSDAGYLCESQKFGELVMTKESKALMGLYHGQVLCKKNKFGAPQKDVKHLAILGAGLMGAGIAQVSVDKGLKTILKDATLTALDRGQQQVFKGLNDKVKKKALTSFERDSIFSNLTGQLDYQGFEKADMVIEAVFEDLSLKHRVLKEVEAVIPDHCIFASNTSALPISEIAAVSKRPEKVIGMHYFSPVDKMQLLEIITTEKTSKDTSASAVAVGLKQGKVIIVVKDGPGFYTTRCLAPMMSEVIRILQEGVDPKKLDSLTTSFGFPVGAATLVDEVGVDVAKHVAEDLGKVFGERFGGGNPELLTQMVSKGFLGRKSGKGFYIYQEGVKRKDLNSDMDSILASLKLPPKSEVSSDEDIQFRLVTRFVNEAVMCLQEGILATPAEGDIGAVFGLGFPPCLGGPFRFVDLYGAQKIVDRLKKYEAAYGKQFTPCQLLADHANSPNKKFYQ
# UniProt Q96DU9: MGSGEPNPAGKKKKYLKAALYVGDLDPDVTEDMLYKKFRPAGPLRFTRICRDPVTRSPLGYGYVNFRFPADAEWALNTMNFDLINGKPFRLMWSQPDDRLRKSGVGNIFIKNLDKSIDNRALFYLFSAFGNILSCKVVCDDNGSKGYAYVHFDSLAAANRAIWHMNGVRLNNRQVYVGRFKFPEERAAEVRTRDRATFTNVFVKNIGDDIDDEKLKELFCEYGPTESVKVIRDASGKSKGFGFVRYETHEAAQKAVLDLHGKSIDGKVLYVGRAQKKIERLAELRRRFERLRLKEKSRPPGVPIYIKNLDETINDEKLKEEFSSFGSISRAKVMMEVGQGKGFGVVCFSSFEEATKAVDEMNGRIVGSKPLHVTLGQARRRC
# UniProt P00441: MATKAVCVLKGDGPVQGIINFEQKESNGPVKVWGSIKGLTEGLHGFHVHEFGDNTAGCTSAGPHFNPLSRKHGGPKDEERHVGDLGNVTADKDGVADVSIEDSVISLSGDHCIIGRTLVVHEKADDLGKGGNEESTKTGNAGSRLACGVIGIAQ
# UniProt P36873: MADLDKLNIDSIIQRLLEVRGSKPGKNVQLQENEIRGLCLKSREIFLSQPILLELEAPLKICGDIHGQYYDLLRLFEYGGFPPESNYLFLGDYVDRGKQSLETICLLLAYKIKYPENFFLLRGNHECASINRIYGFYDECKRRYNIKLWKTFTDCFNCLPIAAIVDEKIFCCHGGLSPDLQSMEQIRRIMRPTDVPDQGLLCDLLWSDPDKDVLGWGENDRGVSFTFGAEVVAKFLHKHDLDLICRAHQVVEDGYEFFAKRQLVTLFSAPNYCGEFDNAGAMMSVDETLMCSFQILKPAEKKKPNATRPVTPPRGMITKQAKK
# UniProt P63167: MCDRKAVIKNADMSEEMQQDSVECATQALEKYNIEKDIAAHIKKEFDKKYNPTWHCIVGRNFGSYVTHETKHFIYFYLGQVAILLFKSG
# Results are given in words; binding and its absence hold for the method and conditions named. Binding seen in cells or lysates may run through a third protein. These calls come from enrichment with a bait or labelling near it, and not all partners need be listed.
# B1: 3-Ketoacyl-CoA thiolase, mitochondrial (protein, UniProt P42765 1-397)
# chain: MALLRGVFVVAAKRTPFGAYGGLLKDFTATDLSEFAAKAALSAGKVSPETVDSVIMGNVLQSSSDAIYLARHVGLRVGIPKETPALTINRLCGSGFQSIVNGCQEICVKEAEVVLCGGTESMSQAPYCVRNVRFGTKLGSDIKLEDSLWVSLTDQHVQLPMAMTAENLAVKHKISREECDKYALQSQQRWKAANDAGYFNDEMAPIEVKTKKGKQTMQVDEHARPQTTLEQLQKLPPVFKKDGTVTAGNASGVADGAGAVIIASEDAVKKHNFTPLARIVGYFVSGCDPSIMGIGPVPAISGALKKAGLSLKDMDLVEVNEAFAPQYLAVERSLDLDISKTNVNGGAIALGHPLGGSGSRITAHLVHELRRRGGKYAVGSACIGGGQGIAVIIQSTA
# B2: Enoyl-CoA hydratase, mitochondrial (protein, UniProt P30084 28-290)
# chain: ASGANFEYIIAEKRGKNNTVGLIQLNRPKALNALCDGLIDELNQALKTFEEDPAVGAIVLTGGDKAFAAGADIKEMQNLSFQDCYSSKFLKHWDHLTQVKKPVIAAVNGYAFGGGCELAMMCDIIYAGEKAQFAQPEILIGTIPGAGGTQRLTRAVGKSLAMEMVLTGDRISAQDAKQAGLVSKICPVETLVEEAIQCAEKIASNSKIVVAMAKESVNAAFEMTLTEGSKLEKKLFYSTFATDDRKEGMTAFVEKRKANFKDQ
# B3: Electron transfer flavoprotein subunit alpha, mitochondrial (protein, UniProt P13804 20-333)
# chain: QSTLVIAEHANDSLAPITLNTITAATRLGGEVSCLVAGTKCDKVAQDLCKVAGIAKVLVAQHDVYKGLLPEELTPLILATQKQFNYTHICAGASAFGKNLLPRVAAKLEVAPISDIIAIKSPDTFVRTIYAGNALCTVKCDEKVKVFSVRGTSFDAAATSGGSASSEKASSTSPVEISEWLDQKLTKSDRPELTGAKVVVSGGRGLKSGENFKLLYDLADQLHAAVGASRAAVDAGFVPNDMQVGQTGKIVAPELYIAVGISGAIQHLAGMKDSKTIVAINKDPEAPIFQVADYGIVADLFKVVPEMTEILKKK
# B4: Isocitrate dehydrogenase [NAD] subunit alpha, mitochondrial (protein, UniProt P50213 28-366)
# chain: TGGVQTVTLIPGDGIGPEISAAVMKIFDAAKAPIQWEERNVTAIQGPGGKWMIPSEAKESMDKNKMGLKGPLKTPIAAGHPSMNLLLRKTFDLYANVRPCVSIEGYKTPYTDVNIVTIRENTEGEYSGIEHVIVDGVVQSIKLITEGASKRIAEFAFEYARNNHRSNVTAVHKANIMRMSDGLFLQKCREVAESCKDIKFNEMYLDTVCLNMVQDPSQFDVLVMPNLYGDILSDLCAGLIGGLGVTPSGNIGANGVAIFESVHGTAPDIAGKDMANPTALLLSAVMMLRHMGLFDHAARIEAACFATIKDGKSLTKDLGGNAKCSDFTEEICRRVKDLD
# B5: Acetyl-CoA acetyltransferase, mitochondrial (protein, UniProt P24752 34-427)
# chain: VSKPTLKEVVIVSATRTPIGSFLGSLSLLPATKLGSIAIQGAIEKAGIPKEEVKEAYMGNVLQGGEGQAPTRQAVLGAGLPISTPCTTINKVCASGMKAIMMASQSLMCGHQDVMVAGGMESMSNVPYVMNRGSTPYGGVKLEDLIVKDGLTDVYNKIHMGSCAENTAKKLNIARNEQDAYAINSYTRSKAAWEAGKFGNEVIPVTVTVKGQPDVVVKEDEEYKRVDFSKVPKLKTVFQKENGTVTAANASTLNDGAAALVLMTADAAKRLNVTPLARIVAFADAAVEPIDFPIAPVYAASMVLKDVGLKKEDIAMWEVNEAFSLVVLANIKMLEIDPQKVNINGGAVSLGHPIGMSGARIVGHLTHALKQGEYGLASICNGGGGASAMLIQKL
# B6: Pyruvate dehydrogenase E1 component subunit beta, mitochondrial (protein, UniProt P11177 31-359)
# chain: LQVTVRDAINQGMDEELERDEKVFLLGEEVAQYDGAYKVSRGLWKKYGDKRIIDTPISEMGFAGIAVGAAMAGLRPICEFMTFNFSMQAIDQVINSAAKTYYMSGGLQPVPIVFRGPNGASAGVAAQHSQCFAAWYGHCPGLKVVSPWNSEDAKGLIKSAIRDNNPVVVLENELMYGVPFEFPPEAQSKDFLIPIGKAKIERQGTHITVVSHSRPVGHCLEAAAVLSKEGVECEVINMRTIRPMDMETIEASVMKTNHLVTVEGGWPQFGVGAEICARIMEGPAFNFLDAPAVRVTGADVPMPYAKILEDNSIPQVKDIIFAIKKTLNI
# B7: Pyrroline-5-carboxylate reductase 2 (protein, UniProt Q96C36 1-320)
# chain: MSVGFIGAGQLAYALARGFTAAGILSAHKIIASSPEMNLPTVSALRKMGVNLTRSNKETVKHSDVLFLAVKPHIIPFILDEIGADVQARHIVVSCAAGVTISSVEKKLMAFQPAPKVIRCMTNTPVVVQEGATVYATGTHALVEDGQLLEQLMSSVGFCTEVEEDLIDAVTGLSGSGPAYAFMALDALADGGVKMGLPRRLAIQLGAQALLGAAKMLLDSEQHPCQLKDNVCSPGGATIHALHFLESGGFRSLLINAVEASCIRTRELQSMADQEKISPAALKKTLLDRVKLESPTVSTLTPSSPGKLLTRSLALGGKKD
# B8: Sideroflexin-1 (protein, UniProt Q9H9B4 1-322)
# chain: MSGELPPNINIKEPRWDQSTFIGRANHFFTVTDPRNILLTNEQLESARKIVHDYRQGIVPPGLTENELWRAKYIYDSAFHPDTGEKMILIGRMSAQVPMNMTITGCMMTFYRTTPAVLFWQWINQSFNAVVNYTNRSGDAPLTVNELGTAYVSATTGAVATALGLNALTKHVSPLIGRFVPFAAVAAANCINIPLMRQRELKVGIPVTDENGNRLGESANAAKQAITQVVVSRILMAAPGMAIPPFIMNTLEKKAFLKRFPWMSAPIQVGLVGFCLVFATPLCCALFPQKSSMSVTSLEAELQAKIQESHPELRRVYFNKGL
# B9: Aconitate hydratase, mitochondrial (protein, UniProt Q99798 28-780)
# chain: QRAKVAMSHFEPNEYIHYDLLEKNINIVRKRLNRPLTLSEKIVYGHLDDPASQEIERGKSYLRLRPDRVAMQDATAQMAMLQFISSGLSKVAVPSTIHCDHLIEAQVGGEKDLRRAKDINQEVYNFLATAGAKYGVGFWKPGSGIIHQIILENYAYPGVLLIGTDSHTPNGGGLGGICIGVGGADAVDVMAGIPWELKCPKVIGVKLTGSLSGWSSPKDVILKVAGILTVKGGTGAIVEYHGPGVDSISCTGMATICNMGAEIGATTSVFPYNHRMKKYLSKTGREDIANLADEFKDHLVPDPGCHYDQLIEINLSELKPHINGPFTPDLAHPVAEVGKVAEKEGWPLDIRVGLIGSCTNSSYEDMGRSAAVAKQALAHGLKCKSQFTITPGSEQIRATIERDGYAQILRDLGGIVLANACGPCIGQWDRKDIKKGEKNTIVTSYNRNFTGRNDANPETHAFVTSPEIVTALAIAGTLKFNPETDYLTGTDGKKFRLEAPDADELPKGEFDPGQDTYQHPPKDSSGQHVDVSPTSQRLQLLEPFDKWDGKDLEDLQILIKVKGKCTTDHISAAGPWLKFRGHLDNISNNLLIGAINIENGKANSVRNAVTQEFGPVPDTARYYKKHGIRWVVIGDENYGEGSSREHAALEPRHLGGRAIITKSFARIHETNLKKQGLLPLTFADPADYNKIHPVDKLTIQGLKDFTPGKPLKCIIKHPNGTQETILLNHTFNETQIEWFRAGSALNRMKELQQ
# B10: Cytosolic acyl coenzyme A thioester hydrolase (protein, UniProt O00154 1-380)
# chain: MKLLARALRLCEFGRQASSRRLVAGQGCVGPRRGCCAPVQVVGPRADLPPCGACITGRIMRPDDANVAGNVHGGTILKMIEEAGAIISTRHCNSQNGERCVAALARVERTDFLSPMCIGEVAHVSAEITYTSKHSVEVQVNVMSENILTGAKKLTNKATLWYVPLSLKNVDKVLEVPPVVYSRQEQEEEGRKRYEAQKLERMETKWRNGDIVQPVLNPEPNTVSYSQSSLIHLVGPSDCTLHGFVHGGVTMKLMDEVAGIVAARHCKTNIVTASVDAINFHDKIRKGCVITISGRMTFTSNKSMEIEVLVDADPVVDSSQKRYRAASAFFTYVSLSQEGRSLPVPQLVPETEDEKKRFEEGKGRYLQMKAKRQGHAEPQP
# B11: Putative coiled-coil-helix-coiled-coil-helix domain-containing protein CHCHD2P9, mitochondrial (protein, UniProt Q5T1J5 10-151)
# chain: SRMAPPASRAPQMRAAPRPAPVAQPPAAAPPSAVGSSAAAPRQPGLMAQMATTAAGVAVGSAVGHTQGHAVTGGFSGGSNAEPARPDIAYQEPQGTQPAQQQQPCFYGIKQFLECAQNQGDIKLCEDFSKVLKQCRLAKGLA
# Target: FLAG-tagged CLPX (CLPXf) (human) (UniProt O76031)
# Assay: affinity purification with mass spectrometry; FLAG-tagged CLPX precipitated from lysate of doxycycline-induced CLPXf^ind/FT293^ΔCLPX cells with anti-DDDDK-agarose beads (3 h, 4 °C), eluted with DDDDK peptides, trypsin digest, LC-MS/MS; OTC-Lucf cells as control for non-specific proteins; mitochondrial proteins extracted with DAVID
row,Molecule,binding
1,"Trifunctional enzyme subunit alpha, mitochondrial (from UniProt P40939 37-763)",binds
2,Polyadenylate-binding protein 5 (from UniProt Q96DU9 1-382),binds
3,"Creatine kinase U-type, mitochondrial (from UniProt P12532 40-417)",binds
4,Superoxide dismutase [Cu-Zn] (from UniProt P00441 1-154),binds
5,Serine/threonine-protein phosphatase PP1-gamma catalytic subunit (from UniProt P36873 1-323),binds
6,"Dynein light chain 1, cytoplasmic (from UniProt P63167 1-89)",binds
7,B1,binds
8,B2,binds
9,B3,binds
10,B4,binds
11,B5,binds
12,B6,binds
13,B7,binds
14,B8,binds
15,B9,binds
16,B10,binds
17,B11,binds
